B1: CTAP-III: naturally occurring polypeptide isolated from human platelets that activates connective tissue cells; fusion partner (protein, UniProt P02775 44-128, looked up)
Connective tissue-activating …: NLAKGKEESLDSDLYAELRCMCIKTTSGIHPKNIQSLEVIGKGTHCNQVEVIATLKDGRKICLDPDAPRIKKIVQKKLAGDESAD
modifications: Connective tissue-activating peptide III
notes: fusion partner

Test system: E. coli
Assay: Stability study, pulse and chase labeling of proteins expressed in E. coli
Assay type: cell-based

| Molecule | half-life (expressed in plasmid pNP6ΔRI/HIR (or pNP6-CRM/HIR), not as a fusion protein, FIG. 8) | half-life in E. coli (in E. coli) | half-life (in words) (expressed in E. coli) |
| --- | --- | --- | --- |
| HV-1: hirudin variant 1, thrombin inhibitor of Hirudo medicinalis, produced from a synthetic DNA | approximately 10 min | approximately 10 minutes |  |
| B1 |  |  | so long that it cannot be accurately measured |
